The supplement of paper PMC10849652
This is one part of the list.

Sequences of proteins named here, by UniProt entry; tags and fusion partners are left off. A change or cut given only in a name is not applied to a line headed by its entry.
UniProt Q13503: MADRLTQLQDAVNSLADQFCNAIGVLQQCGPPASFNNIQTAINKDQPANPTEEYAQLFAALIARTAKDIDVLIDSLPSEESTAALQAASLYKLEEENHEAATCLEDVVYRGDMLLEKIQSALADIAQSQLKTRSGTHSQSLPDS
UniProt P42679: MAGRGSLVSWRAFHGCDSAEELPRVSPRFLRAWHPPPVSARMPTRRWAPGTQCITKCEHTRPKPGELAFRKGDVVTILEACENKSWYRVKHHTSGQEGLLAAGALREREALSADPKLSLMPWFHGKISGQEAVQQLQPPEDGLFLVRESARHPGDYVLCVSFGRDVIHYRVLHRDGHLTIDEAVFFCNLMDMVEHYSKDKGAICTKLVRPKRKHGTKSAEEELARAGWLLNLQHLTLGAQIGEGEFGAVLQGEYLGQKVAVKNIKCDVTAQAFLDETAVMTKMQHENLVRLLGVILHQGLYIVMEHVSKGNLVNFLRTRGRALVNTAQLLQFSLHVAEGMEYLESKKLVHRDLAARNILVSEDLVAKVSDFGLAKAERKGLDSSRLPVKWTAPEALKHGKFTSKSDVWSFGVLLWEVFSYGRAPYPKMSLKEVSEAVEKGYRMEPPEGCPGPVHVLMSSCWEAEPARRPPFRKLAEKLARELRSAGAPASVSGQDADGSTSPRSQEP
UniProt Q8NBP5: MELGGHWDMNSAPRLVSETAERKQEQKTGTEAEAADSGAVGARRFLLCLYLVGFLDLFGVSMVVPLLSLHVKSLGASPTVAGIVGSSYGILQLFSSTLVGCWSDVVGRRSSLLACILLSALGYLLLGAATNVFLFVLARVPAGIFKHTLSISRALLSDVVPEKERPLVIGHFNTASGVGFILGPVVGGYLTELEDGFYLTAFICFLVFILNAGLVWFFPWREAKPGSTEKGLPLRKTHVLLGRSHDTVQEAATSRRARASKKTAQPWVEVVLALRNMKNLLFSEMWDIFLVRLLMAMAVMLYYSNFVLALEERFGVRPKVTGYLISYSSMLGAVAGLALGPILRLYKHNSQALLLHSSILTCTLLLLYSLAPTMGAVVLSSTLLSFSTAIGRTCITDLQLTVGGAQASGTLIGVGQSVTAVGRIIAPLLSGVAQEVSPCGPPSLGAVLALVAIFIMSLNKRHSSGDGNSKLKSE
UniProt A4D2B0: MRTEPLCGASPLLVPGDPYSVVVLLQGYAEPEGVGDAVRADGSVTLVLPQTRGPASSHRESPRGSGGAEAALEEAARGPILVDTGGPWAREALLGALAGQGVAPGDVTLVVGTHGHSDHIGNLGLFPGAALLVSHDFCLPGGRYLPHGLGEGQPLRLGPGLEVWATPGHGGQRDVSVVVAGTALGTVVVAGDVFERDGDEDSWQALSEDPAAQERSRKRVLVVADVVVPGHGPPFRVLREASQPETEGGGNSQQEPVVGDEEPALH
UniProt Q9NS73: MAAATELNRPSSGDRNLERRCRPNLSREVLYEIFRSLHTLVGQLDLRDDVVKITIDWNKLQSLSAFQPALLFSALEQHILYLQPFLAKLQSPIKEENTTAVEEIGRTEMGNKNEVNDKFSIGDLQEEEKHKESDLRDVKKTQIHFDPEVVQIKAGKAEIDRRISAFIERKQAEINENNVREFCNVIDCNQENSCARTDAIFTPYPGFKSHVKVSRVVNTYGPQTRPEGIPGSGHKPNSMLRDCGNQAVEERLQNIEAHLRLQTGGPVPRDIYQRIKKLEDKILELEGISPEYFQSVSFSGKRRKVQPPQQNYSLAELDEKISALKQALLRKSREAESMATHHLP
UniProt Q02078: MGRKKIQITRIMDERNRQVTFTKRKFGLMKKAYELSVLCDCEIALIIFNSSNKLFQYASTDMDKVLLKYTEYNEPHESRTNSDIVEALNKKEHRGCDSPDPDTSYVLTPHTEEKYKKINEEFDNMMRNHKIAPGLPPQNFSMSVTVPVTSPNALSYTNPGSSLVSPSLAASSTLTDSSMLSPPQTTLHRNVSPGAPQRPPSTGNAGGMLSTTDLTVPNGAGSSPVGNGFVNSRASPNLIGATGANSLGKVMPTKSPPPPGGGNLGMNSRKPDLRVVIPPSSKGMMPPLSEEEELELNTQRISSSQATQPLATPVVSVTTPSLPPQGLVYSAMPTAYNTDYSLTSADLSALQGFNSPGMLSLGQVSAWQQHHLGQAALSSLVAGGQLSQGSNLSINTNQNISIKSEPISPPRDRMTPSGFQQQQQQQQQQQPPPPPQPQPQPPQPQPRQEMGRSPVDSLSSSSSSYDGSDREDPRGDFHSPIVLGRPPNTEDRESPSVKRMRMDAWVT
MCTS2P, A0A3B3IRV3, UniProt A0A3B3IRV3, whole entry, looked up: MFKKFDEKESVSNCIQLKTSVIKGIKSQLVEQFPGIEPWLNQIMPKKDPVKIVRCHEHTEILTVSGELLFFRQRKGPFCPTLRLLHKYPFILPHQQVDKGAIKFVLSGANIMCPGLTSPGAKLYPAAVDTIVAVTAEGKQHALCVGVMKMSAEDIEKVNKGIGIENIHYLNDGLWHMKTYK
UniProt Q7L590: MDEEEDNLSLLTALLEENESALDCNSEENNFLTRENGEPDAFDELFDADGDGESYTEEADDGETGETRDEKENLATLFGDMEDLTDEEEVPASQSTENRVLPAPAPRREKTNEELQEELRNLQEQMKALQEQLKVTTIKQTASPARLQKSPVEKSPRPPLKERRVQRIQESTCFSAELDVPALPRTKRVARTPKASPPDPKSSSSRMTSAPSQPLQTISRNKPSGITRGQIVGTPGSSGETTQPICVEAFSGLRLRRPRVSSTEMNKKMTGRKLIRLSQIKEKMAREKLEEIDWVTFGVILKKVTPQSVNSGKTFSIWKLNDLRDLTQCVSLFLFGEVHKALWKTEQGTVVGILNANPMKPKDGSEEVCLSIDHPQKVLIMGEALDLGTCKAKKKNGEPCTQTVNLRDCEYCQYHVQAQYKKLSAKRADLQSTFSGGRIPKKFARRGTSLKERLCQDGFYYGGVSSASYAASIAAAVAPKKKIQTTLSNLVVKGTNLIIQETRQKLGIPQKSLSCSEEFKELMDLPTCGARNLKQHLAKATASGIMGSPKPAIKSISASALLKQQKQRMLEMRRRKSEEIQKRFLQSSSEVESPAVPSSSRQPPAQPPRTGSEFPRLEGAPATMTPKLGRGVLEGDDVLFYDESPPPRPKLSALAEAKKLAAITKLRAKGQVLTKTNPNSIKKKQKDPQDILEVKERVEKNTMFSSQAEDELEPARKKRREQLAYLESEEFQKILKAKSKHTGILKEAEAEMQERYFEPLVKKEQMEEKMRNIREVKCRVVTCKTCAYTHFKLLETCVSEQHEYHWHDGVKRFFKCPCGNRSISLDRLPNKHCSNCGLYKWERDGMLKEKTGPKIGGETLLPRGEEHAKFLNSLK
UniProt Q9H1U4: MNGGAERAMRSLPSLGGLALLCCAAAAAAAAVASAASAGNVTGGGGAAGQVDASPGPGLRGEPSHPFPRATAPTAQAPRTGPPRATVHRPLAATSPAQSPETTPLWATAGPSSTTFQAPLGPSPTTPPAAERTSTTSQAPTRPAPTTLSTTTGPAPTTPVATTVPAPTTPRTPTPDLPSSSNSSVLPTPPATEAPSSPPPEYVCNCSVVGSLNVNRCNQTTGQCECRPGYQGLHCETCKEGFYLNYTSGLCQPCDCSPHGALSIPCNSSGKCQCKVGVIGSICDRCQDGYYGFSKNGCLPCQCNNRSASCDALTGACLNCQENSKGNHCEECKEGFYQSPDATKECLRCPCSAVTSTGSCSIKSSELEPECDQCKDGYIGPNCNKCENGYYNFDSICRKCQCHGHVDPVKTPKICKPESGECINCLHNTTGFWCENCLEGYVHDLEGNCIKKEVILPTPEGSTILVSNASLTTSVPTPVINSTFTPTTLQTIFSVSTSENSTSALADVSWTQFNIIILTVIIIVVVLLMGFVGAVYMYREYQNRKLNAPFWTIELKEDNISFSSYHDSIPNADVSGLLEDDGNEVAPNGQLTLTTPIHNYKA
UniProt Q8NHS3: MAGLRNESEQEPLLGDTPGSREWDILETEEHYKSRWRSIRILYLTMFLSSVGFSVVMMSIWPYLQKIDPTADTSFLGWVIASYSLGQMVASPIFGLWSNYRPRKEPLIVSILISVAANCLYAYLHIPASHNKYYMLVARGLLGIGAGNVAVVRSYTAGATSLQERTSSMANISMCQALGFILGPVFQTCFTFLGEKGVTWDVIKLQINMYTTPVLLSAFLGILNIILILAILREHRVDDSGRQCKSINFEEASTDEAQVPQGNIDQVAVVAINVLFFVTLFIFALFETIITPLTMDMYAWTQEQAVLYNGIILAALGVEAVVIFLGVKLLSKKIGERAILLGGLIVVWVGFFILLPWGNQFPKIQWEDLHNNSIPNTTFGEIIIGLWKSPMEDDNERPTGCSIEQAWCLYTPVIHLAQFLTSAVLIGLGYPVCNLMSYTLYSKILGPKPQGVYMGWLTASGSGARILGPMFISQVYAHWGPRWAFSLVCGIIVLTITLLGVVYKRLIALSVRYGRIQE
UniProt O14770: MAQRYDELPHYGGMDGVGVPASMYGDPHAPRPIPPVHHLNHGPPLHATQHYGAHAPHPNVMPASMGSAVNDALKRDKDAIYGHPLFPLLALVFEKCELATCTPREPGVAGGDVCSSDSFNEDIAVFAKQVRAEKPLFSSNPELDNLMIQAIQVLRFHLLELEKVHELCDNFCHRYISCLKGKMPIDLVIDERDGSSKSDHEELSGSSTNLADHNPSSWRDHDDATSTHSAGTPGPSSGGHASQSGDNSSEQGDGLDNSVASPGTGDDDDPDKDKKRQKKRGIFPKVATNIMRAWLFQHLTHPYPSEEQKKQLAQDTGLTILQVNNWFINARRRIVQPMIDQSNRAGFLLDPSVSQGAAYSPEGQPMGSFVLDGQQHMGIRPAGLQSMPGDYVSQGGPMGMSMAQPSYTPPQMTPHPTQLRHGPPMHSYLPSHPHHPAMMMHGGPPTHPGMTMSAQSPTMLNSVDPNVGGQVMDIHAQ
UniProt Q9P086: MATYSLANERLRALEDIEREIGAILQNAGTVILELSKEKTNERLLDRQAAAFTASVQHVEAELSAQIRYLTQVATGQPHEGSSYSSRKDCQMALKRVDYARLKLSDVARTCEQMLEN
UniProt Q5U5Q3: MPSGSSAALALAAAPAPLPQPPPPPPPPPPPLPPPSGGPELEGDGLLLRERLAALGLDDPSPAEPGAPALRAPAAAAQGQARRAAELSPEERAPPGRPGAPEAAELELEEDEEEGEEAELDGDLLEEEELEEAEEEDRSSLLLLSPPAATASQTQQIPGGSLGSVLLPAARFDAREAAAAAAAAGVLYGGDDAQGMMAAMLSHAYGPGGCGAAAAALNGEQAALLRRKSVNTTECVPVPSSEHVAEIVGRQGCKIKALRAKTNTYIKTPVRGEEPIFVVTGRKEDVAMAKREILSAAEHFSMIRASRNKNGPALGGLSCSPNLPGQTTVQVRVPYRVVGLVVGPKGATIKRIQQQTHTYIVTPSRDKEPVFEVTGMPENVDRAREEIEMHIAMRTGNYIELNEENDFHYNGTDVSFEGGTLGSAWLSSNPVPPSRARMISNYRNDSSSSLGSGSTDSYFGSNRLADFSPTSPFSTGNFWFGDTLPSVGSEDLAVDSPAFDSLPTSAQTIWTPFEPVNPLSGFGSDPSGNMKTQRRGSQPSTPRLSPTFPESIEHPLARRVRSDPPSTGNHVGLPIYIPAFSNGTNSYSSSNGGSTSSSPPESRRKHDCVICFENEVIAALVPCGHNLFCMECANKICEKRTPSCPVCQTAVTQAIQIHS
UniProt Q8TDD5: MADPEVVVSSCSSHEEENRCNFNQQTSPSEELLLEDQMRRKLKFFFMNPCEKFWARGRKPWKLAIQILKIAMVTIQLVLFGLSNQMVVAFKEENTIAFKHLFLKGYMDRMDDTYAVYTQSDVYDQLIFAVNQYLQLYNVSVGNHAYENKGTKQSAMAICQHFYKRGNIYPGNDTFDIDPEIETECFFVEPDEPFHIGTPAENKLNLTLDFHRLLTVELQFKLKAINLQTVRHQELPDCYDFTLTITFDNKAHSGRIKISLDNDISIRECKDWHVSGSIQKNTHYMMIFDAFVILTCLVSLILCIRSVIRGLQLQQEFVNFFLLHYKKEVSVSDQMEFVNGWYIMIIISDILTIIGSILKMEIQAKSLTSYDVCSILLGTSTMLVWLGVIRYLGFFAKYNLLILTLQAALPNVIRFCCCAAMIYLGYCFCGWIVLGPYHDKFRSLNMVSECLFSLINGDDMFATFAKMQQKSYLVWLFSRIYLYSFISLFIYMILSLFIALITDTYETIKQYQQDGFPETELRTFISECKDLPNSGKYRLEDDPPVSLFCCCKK
UniProt Q9Y3C7: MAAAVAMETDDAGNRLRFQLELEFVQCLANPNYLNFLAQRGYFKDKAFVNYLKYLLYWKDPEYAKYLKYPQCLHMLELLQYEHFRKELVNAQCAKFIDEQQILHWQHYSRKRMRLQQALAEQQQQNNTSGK

Columns and labels:
Experiment in all cases: log2 fold change, soluble protein after heating vs DMSO (PISA); higher = thermal stabilisation; K562 cells, 10 uM, 30 min; active = over 0.2 and 3.5 SD of the protein, either way, in both replicates (recomputed)
[1] = compound: CN1CC[C@H](c2c(O)cc(O)c3c(=O)cc(-c4ccccc4Cl)oc23)[C@H](O)C1 [alvocidib]
Summary of the method: (§1)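 Quantification of soluble protein used TMTpro 16plex LC-MS/MS, with channel sums equalised. Samples were the supernatant after 21,000xg for 90 min of pooled aliquots from K562 cells (2×10^6 cells/mL) treated with 10 μM compound for 30 min, heated for 3 min over 48°C-58°C, and extracted in PBS with 0.5% NP-40 at 4°C. Values, from duplicates, describe thermal stability against control samples on a log2 fold-change scale.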

[2] = compound: CN1CCc2c(c3ccccc3n2Cc2ccc(C(=O)NO)cc2)C1 [Tubastatin A]
Summary of the method: as §1

[3] = compound: CNCc1ccc(-c2[nH]c3cc(F)cc4c3c2CCNC4=O)cc1 [rucaparib]
Summary of the method: as §1

[4] = compound: COC(=O)N[C@@H](C)CNc1nccc(-c2cn(C(C)C)nc2-c2cc(Cl)cc(NS(C)(=O)=O)c2F)n1 [encorafenib]
Summary of the method: as §1

[5] = compound: CO[C@H]1C[C@@H]2CC[C@@H](C)[C@@](O)(O2)C(=O)C(=O)N2CCCC[C@H]2C(=O)O[C@H]([C@H](C)C[C@@H]2CC[C@H](n3cnnn3)[C@H](OC)C2)CC(=O)[C@H](C)/C=C(\C)[C@@H](O)[C@@H](OC)C(=O)[C@H](C)C[C@H](C)/C=C/C=C/C=C/1C [zotarolimus]
Summary of the method: as §1

[6] = compound: COc1cc(C(=O)O)ccc1NC(=O)[C@@H]1N[C@@H](CC(C)(C)C)[C@](C#N)(c2ccc(Cl)cc2F)[C@H]1c1cccc(Cl)c1F [idasanutlin]
Summary of the method: as §1

[7] = compound: COc1cc(Nc2ncc3c(n2)-c2ccc(Cl)cc2C(c2c(F)cccc2OC)=NC3)ccc1C(=O)O [alisertib]
Summary of the method: as §1

[8] = compound: COc1cc2nc(-c3cc(F)ccc3O)nc(N[C@@H]3CNC[C@H]3C(C)(C)O)c2cc1OC
Summary of the method: as §1

[9] = compound: COc1cc2ncnc(Nc3ccc(F)c(Cl)c3)c2cc1OCCCN1CCOCC1 [gefitinib]
Summary of the method: as §1

[10] = compound: COc1cccc2cc(-c3nc([C@H]4CC[C@H](C(=O)O)CC4)n4ncnc(N)c34)[nH]c12
Summary of the method: as §1

[11] = compound: CS(=O)(=O)CCNCc1ccc(-c2ccc3ncnc(Nc4ccc(OCc5cccc(F)c5)c(Cl)c4)c3c2)o1 [lapatinib]
Summary of the method: as §1

[12] = compound: CS(=O)(=O)N1CCN(Cc2cc3nc(-c4cccc5[nH]ncc45)nc(N4CCOCC4)c3s2)CC1 [pictilisib]
Summary of the method: as §1

[13] = compound: CN1CCN(CCOc2cc(OC3CCOCC3)c3c(Nc4c(Cl)ccc5c4OCO5)ncnc3c2)CC1 [saracatinib]
Summary of the method: as §1

[14] = compound: CNC(=O)c1ccc(Nc2ncc(C(F)(F)F)c(NCc3nccnc3N(C)S(C)(=O)=O)n2)cc1 [defactinib]
Summary of the method: as §1

[15] = compound: CNc1nc(-c2ccc3c(N)n[nH]c3c2)cc(N2C[C@@H](C(=O)NC3CCCCC3)CC[C@H]2C)n1
Summary of the method: as §1

[16] = compound: COC(=O)[C@H](CCSC)NC(=O)C1=C(C=C(C=C1)NC[C@H](CS)N)C2=CC=CC=C2
Summary of the method: as §1

[17] = compound: CNC(=O)C1=CC=CC=C1NC2=NC(=NC=C2Cl)NC3=C(C=C(C=C3)N4CCOCC4)OC
Summary of the method: as §1

[18] = compound: COC1=CC=C(C=C1)CN2C=CC3=C2C=C(C=C3)C(=O)NO
Summary of the method: as §1

[19] = compound: CN1CCN(c2nc(C3=C(c4c[nH]c5ccccc45)C(=O)NC3=O)c3ccccc3n2)CC1 [sotrastaurin]
Summary of the method: as §1

[20] = compound: CON(C)C(=O)N1N=C(c2cc(F)ccc2F)S[C@@]1(CCCN)c1ccccc1 [filanesib]
Summary of the method: as §1

Measured: log2 fold change

MED21 (UniProt Q13503)
inactive: [1] -0.249 | [2] -0.109 | [3] -0.018 | [4] -0.207 | [5] 0.091 | [6] 0.199 | [7] 0.012 | [8] -0.132 | [9] -0.396 | [10] -0.026 | [11] -0.089 | [12] -0.075

MATK isoform 2 (UniProt P42679)
inactive: [13] -0.008 | [1] 0.17 | [14] -0.03 | [15] 0.177 | [16] -0.173 | [5] -0.035 | [9] -0.02

MFSD9 (UniProt Q8NBP5)
inactive: [13] 0.071 | [1] -0.027 | [17] -0.1 | [15] -0.141 | [5] -0.027 | [7] 0.023 | [8] 0.047 | [9] 0.273 | [10] 0.147 | [11] -0.073

MBLAC1 (UniProt A4D2B0)
inactive: [13] 0.164 | [17] 0.049 | [14] 0.003 | [3] 0.023 | [15] -0.005 | [4] 0.035 | [16] -0.02 | [18] 0.11 | [5] 0.008 | [6] 0.056 | [7] -0.161 | [8] -0.064 | [10] 0.086 | [11] 0.01 | [12] 0.043

MBIP (UniProt Q9NS73)
inactive: [2] 0.009 | [17] -0.211 | [14] 0.107 | [16] 0.003 | [18] -0.025 | [6] 0.001 | [7] -0.231 | [8] 0.069 | [10] 0.081 | [11] 0.012

MEF2A (UniProt Q02078)
inactive: [19] -0.197 | [2] 0.066 | [17] -0.016 | [3] 0.095 | [4] 0.035 | [20] 0.21 | [8] 0.042 | [9] -0.036 | [11] 0.07

MCTS2P, A0A3B3IRV3
inactive: [9] 0.022

MCM10 (UniProt Q7L590)
inactive: [19] -0.09 | [2] -0.017 | [17] 0.014 | [14] 0.018 | [3] -0.021 | [4] -0.049 | [16] -0.007 | [18] 0.303 | [20] -0.192 | [7] -0.097 | [8] -0.103 | [9] -0.014 | [10] 0.1 | [11] 0.204 | [12] -0.118

MED13L (UniProt Q71F56)
inactive: [1] 0.025 | [17] -0.012 | [14] -0.08 | [16] 0 | [5] -0.065 | [8] -0.063 | [11] 0.069

MEGF9 (UniProt Q9H1U4)
inactive: [19] 0.087 | [1] 0.152 | [2] -0.038 | [17] 0.124 | [20] -0.029 | [5] 0.159 | [12] 0.131

MFSD8 (UniProt Q8NHS3)
inactive: [13] 0.078 | [2] 0.023 | [17] -0.003 | [14] -0.008 | [3] 0.039 | [15] -0.053 | [4] 0.012 | [16] 0.003 | [18] -0.236 | [5] -0.062 | [6] -0.019 | [7] 0.059 | [8] -0.07 | [10] 0.054 | [11] 0.025 | [12] 0.079

MEIS2 (UniProt O14770)
inactive: [13] -0.092 | [1] -0.169 | [17] -0.074 | [15] -0.017 | [18] -0.215 | [5] 0.066 | [6] -0.009 | [8] 0.082 | [11] -0.05 | [12] 0.073

MEF2A isoform 2 (UniProt Q02078)
inactive: [1] -0.078 | [14] -0.133 | [16] 0.092 | [18] -0.01 | [5] -0.083 | [7] -0.098 | [8] 0.046 | [9] 0.008 | [10] 0.061 | [11] 0.055 | [12] -0.117

MEGF8 (UniProt Q7Z7M0)
inactive: [2] 0.029 | [3] -0.107 | [4] -0.052 | [18] -0.25 | [6] -0.316 | [9] 0.106

MED11 (UniProt Q9P086)
inactive: [2] -0.065 | [17] 0.014 | [18] 0.274 | [7] -0.09 | [10] 0.045

MEX3C (UniProt Q5U5Q3)
inactive: [7] 0.181 | [10] -0.063

MCOLN3 (UniProt Q8TDD5)
inactive: [2] -0.001 | [17] -0.141 | [3] -0.275 | [4] -0.026 | [7] 0.058 | [8] 0.068 | [9] -0.04 | [10] -0.035 | [11] -0.02 | [12] 0.044

MED31 (UniProt Q9Y3C7)
inactive: [14] -0.098 | [3] 0.184 | [4] -0.022 | [16] -0.075 | [18] -0.114 | [7] -0.035 | [9] 0.081 | [10] -0.036
